Experimental data taken from patent US20200206344.

Chains of the proteins cited; added tags and fusions are not shown. Lines headed by an entry give the natural chain unless they say otherwise; changes in a name come on top.
UniProt Q12824: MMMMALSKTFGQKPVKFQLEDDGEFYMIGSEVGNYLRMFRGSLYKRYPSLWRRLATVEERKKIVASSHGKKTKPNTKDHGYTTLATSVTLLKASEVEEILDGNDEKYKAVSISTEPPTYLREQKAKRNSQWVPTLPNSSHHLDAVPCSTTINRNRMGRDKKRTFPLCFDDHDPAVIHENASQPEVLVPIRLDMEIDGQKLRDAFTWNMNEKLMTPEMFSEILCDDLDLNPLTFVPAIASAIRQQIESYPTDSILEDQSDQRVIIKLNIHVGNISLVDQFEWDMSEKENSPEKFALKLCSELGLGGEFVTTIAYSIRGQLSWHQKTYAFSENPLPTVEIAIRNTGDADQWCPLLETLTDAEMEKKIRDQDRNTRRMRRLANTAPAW

Tests used:
[1] = target: BAF47-FLI1 fusion (Homo sapiens) (UniProt Q12824); assay: binding assay; conditions: ChIP in MSC; no significant binding at GGAA repeats; protein in cells
[2] = test system: T1, EWS-FLI1 fusion type 1 (Homo sapiens); assay: binding assay; conditions: ChIP-seq/ChIP-qPCR in SK-N-MC and MSC; GGAA repeat top-ranked motif; protein in cells; protein details: V5-tagged in MSC constructs, endogenous in SK-N-MC
T1 sequence: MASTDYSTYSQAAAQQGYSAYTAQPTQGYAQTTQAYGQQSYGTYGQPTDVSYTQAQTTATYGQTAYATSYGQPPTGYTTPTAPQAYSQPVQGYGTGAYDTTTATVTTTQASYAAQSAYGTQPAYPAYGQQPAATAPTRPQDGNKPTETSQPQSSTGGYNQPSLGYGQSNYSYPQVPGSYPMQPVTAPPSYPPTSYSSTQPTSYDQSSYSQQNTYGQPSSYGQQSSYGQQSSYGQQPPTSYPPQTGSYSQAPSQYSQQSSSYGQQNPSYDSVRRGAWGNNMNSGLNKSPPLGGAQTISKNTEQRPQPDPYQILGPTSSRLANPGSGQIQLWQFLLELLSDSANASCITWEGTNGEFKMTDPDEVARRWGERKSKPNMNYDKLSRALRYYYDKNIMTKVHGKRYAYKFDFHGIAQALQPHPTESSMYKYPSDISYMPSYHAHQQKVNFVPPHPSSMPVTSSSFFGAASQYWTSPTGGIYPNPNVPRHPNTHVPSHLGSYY

[3] = test system: T2, EWS(YS37)-FLI1 (Homo sapiens); assay: binding assay; conditions: ChIP-seq in MSC; dramatic reduction versus EWS-FLI1; p553 states not able to bind GGAA repeats; protein in cells; protein details: V5
T2 sequence: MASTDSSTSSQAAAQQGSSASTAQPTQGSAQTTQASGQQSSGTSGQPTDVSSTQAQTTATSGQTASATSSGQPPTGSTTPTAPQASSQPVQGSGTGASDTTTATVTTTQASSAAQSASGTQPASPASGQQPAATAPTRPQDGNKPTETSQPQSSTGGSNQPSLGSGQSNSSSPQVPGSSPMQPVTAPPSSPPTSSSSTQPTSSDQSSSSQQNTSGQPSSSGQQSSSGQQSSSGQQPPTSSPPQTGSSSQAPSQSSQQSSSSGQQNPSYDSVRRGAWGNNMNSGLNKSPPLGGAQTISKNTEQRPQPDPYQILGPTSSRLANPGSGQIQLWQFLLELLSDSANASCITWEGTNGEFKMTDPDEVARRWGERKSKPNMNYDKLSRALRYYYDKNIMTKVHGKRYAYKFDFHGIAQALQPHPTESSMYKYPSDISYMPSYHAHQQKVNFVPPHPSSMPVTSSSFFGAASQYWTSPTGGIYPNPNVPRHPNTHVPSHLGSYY

[4] = target: T3, FLI1 wild-type (Homo sapiens) (UniProt Q01543); assay: binding assay; conditions: ChIP-seq in MSC; no significant binding at GGAA repeats; protein in cells; protein details: lentiviral expression in MSC
T3 sequence (looked up, limits assumed): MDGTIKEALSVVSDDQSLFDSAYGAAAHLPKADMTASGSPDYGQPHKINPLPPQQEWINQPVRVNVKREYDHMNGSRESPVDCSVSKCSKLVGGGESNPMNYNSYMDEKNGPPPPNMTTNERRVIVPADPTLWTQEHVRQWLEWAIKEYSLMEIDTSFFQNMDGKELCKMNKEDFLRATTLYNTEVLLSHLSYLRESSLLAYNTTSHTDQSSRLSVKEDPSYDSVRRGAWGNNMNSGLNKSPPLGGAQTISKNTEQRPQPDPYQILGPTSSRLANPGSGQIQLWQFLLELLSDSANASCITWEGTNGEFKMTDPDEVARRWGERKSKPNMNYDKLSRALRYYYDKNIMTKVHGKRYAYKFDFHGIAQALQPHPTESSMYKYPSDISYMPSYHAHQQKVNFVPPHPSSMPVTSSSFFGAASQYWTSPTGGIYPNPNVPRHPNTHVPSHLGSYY

[5] = target: T4, SYGQ2-FLI1 (Homo sapiens) (UniProt Q01543); assay: binding assay; conditions: ChIP-seq in MSC; protein in cells
T4 sequence: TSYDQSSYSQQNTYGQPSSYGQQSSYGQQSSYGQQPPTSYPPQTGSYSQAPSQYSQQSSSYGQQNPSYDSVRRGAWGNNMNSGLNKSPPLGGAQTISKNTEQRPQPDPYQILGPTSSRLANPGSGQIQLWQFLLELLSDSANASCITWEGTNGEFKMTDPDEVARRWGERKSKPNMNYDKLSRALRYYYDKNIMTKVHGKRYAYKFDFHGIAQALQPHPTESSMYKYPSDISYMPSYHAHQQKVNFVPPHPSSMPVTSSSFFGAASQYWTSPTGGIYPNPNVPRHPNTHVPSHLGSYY

[6] = test system: T1, EWS-FLI1 fusion type 1 (Homo sapiens); assay: EMSA; conditions: CITED Gangwal 2008; in vitro binding to GGAA repeats; protein in cells; protein details: V5-tagged in MSC constructs, endogenous in SK-N-MC
[7] = target: T3, FLI1 wild-type (Homo sapiens); assay: EMSA; conditions: CITED Gangwal 2008; in vitro binding to GGAA repeats; protein in cells; protein details: lentiviral expression in MSC

Sequence: AAGGAAGGAAGGAAGG (double strand) [GGAA microsatellite repeat enhancers]
- binding result [1]: no binding
- binding result [2]: binds
- binding result [3]: binds more weakly
- binding result [4]: no binding
- binding result [5]: binds
- binding result [6]: binds
- binding result [7]: binds

At least one result comes from cells or an extract, where the contact may be indirect. For some of these results: A negative result means that nothing was seen under these conditions. For some of these results: Where a protein sequence is shown, tags need not be part of it. For some of these results: Construct, isoform or probe ends are uncertain for at least one entry. For some of these results: The comparison behind a weaker result is the experiment's own reference, which may not be listed here.
